Reference: article PMC10249358, “Elucidation of Short Linear Motif-Based Interactions of the FERM Domains of Ezrin, Radixin, Moesin, and Merlin” (Biochemistry, 2023)
These are yes or no findings as the source states them, for the method shown. For some assays here: Binding seen in cells or lysates may run through a third protein. Some results given as binding are weak or reduced against the parent protein; the word gives no strength.

The chains behind the UniProt entries cited, without tags or fusion partners. Where a name states a change or a piece, a line headed by the entry shows the natural chain unless it says otherwise. Residues count along the entry.
UniProt P35240, residues 22-312: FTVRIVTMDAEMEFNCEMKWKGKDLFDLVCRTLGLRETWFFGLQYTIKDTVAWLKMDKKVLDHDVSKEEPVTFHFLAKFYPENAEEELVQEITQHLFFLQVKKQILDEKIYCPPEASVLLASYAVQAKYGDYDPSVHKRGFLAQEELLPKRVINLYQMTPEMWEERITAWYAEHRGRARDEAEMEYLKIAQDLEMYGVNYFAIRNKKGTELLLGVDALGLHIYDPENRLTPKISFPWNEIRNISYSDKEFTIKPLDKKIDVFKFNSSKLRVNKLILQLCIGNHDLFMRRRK
UniProt Q8IZU9: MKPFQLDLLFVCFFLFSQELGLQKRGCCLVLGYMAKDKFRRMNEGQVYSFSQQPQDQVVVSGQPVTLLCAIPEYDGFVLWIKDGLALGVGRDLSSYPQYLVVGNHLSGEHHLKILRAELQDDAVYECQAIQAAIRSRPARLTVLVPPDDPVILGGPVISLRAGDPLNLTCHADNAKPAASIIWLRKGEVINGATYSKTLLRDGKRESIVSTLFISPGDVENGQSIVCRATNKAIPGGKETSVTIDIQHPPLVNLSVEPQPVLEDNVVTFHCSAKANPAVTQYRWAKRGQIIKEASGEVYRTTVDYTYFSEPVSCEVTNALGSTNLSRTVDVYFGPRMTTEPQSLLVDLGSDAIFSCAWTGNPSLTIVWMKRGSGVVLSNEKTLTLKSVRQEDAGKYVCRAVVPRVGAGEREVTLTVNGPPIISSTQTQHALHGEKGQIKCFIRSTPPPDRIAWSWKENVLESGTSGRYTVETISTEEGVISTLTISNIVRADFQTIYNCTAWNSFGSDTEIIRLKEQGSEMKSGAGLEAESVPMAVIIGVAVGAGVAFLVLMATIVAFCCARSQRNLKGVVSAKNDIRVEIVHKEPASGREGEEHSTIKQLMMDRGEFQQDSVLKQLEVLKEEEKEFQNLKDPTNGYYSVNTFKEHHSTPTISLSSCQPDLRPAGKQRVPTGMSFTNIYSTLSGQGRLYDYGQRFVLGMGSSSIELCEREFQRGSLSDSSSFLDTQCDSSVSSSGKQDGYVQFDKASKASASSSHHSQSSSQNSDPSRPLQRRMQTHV
UniProt O14745: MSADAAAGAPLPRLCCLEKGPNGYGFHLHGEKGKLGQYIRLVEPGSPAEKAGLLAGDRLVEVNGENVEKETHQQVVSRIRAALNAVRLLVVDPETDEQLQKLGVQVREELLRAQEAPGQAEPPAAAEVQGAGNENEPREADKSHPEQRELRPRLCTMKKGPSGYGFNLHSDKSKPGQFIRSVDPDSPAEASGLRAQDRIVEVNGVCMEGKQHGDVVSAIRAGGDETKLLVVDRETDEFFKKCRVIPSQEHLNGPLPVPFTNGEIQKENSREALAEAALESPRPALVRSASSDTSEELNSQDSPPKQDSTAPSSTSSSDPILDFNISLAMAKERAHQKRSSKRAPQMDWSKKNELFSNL
UniProt P57082: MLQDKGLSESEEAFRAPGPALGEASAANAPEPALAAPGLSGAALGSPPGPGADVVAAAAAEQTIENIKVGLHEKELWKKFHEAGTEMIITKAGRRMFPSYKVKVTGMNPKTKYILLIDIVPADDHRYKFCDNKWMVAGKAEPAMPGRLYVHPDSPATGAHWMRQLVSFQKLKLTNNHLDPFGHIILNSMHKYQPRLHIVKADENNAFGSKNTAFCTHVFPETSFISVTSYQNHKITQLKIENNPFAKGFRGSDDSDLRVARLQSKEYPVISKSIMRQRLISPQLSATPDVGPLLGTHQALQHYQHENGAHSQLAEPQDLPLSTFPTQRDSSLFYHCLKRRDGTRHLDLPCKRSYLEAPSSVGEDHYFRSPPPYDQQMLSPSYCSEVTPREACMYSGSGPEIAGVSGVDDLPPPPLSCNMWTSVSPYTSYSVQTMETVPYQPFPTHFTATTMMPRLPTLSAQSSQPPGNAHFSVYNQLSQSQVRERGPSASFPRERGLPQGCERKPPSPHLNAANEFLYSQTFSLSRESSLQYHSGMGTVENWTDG
UniProt Q969S3: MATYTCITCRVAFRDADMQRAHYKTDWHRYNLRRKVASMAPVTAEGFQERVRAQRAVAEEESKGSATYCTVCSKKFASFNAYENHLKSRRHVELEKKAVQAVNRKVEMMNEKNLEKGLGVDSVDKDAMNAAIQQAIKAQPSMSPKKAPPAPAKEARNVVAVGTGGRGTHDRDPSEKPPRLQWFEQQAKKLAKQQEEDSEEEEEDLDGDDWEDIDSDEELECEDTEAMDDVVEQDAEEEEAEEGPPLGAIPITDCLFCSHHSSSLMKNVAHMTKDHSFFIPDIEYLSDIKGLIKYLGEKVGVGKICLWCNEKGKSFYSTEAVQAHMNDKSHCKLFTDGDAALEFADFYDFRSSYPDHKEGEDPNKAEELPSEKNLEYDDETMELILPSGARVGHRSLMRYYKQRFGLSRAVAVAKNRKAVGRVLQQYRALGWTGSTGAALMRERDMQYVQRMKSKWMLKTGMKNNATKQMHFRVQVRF
UniProt A6ND36: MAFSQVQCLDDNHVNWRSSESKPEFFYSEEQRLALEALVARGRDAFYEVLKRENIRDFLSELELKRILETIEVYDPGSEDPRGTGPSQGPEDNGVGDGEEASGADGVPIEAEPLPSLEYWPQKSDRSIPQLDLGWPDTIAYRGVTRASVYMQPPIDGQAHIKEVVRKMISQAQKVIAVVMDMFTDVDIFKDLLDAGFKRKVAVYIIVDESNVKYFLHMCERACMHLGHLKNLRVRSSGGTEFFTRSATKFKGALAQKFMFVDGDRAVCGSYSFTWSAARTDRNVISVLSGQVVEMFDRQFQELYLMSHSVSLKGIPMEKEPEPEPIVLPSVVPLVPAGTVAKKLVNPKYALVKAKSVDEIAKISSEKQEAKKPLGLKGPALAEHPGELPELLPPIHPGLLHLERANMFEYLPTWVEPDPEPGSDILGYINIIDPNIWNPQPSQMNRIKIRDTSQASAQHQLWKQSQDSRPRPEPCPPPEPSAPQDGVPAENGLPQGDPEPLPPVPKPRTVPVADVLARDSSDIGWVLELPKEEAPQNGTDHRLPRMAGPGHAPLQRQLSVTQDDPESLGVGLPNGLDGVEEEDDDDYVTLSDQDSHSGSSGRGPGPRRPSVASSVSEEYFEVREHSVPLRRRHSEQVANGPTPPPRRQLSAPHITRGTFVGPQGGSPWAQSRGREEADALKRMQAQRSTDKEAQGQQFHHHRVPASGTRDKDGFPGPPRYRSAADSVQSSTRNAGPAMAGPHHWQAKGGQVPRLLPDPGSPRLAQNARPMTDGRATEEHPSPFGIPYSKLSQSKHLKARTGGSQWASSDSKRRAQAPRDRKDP
UniProt Q16665: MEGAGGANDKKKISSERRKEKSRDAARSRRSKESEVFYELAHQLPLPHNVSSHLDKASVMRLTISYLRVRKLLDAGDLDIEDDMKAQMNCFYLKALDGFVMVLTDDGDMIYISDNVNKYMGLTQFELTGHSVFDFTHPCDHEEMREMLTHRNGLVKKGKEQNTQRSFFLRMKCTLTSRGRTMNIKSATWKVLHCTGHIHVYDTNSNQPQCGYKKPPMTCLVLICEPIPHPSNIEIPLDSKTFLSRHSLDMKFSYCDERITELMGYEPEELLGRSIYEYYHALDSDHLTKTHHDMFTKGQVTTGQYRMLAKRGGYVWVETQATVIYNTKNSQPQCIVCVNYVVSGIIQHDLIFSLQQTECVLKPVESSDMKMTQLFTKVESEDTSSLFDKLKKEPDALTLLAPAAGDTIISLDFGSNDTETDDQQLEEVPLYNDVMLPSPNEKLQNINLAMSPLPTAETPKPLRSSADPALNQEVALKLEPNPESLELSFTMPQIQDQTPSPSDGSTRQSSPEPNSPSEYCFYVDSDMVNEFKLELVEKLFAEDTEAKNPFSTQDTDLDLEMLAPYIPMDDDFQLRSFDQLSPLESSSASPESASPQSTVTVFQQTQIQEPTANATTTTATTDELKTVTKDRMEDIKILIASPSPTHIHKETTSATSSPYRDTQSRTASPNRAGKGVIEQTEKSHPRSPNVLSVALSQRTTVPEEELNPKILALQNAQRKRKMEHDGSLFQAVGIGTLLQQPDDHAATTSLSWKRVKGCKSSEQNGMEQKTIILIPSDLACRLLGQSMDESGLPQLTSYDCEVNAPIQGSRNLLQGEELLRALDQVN
UniProt P15311, residues 2-296: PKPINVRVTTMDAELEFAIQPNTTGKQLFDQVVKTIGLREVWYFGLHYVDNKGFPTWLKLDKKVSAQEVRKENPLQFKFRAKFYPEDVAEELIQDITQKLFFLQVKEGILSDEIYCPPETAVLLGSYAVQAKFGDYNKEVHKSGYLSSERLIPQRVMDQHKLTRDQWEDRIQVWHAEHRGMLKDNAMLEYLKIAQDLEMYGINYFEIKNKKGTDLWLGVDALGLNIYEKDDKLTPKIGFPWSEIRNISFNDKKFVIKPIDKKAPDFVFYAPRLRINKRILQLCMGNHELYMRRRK
UniProt Q9NQU5: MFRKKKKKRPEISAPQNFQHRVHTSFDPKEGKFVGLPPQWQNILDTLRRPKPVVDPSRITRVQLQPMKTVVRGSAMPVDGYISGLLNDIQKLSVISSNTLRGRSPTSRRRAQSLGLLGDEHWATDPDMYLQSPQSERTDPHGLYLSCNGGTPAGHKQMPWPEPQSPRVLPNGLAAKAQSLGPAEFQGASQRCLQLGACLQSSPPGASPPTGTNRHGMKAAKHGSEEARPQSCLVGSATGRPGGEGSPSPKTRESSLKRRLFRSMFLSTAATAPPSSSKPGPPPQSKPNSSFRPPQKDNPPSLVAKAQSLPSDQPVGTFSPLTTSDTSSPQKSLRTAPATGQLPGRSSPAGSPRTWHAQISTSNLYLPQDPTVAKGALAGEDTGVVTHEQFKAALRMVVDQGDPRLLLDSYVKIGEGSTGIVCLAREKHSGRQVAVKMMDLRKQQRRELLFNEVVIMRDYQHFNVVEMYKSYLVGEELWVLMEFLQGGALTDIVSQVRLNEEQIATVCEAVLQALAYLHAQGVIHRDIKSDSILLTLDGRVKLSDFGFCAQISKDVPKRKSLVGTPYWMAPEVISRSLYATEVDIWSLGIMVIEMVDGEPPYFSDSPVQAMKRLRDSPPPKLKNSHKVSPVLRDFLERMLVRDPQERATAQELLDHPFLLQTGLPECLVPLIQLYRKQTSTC

Key:
[1] = biological target: GST-tagged merlin FERM domain (human) (UniProt P35240); assay: pull-down; GST-tagged moesin or merlin FERM domain mixed with lysate of transfected HEK293 cells (0.5 mg protein) and GSH magnetic beads, GFP-Trap or anti-FLAG M2 beads, overnight 4 °C; 50 mM Tris-HCl pH 7.4, 150 mM NaCl, 0.5% NP-40; immunoblot; only the target purified
[2] = biological target: GST-tagged moesin FERM domain (UniProt P26038); assay: as above
[3] = biological target: T1, FITC-KIRREL3(637–652) peptide (human) (UniProt Q8IZU9); assay: fluorescence polarisation; competition: precomplex of FERM domain (2 x KD) and FITC-KIRREL3(637–652) probe, titrated with unlabeled peptide; constants printed as KD′; FP buffer; both purified
T1 sequence (peptide, FITC label (position not stated)): YYSVNTFKEHHSTPTI

[4] = biological target: T2, FITC-EBP50(348–358) peptide (UniProt O14745); assay: fluorescence polarisation; direct binding of FITC-labeled probe peptide titrated with moesin FERM in the presence of a saturating concentration of unlabeled peptide (80–150 μM); FP buffer; both purified
T2 sequence (peptide, FITC label (position not stated)): WSKKNELFSNL

[5] = biological target: T1, FITC-KIRREL3(637–652) peptide (human); assay: as above
[6] = biological target: T3, FITC-TBX4(428–443) peptide (human) (UniProt P57082); assay: as above
T3 sequence (peptide, FITC label (position not stated)): SYSVQTMETVPYQPFP

[7] = biological target: T4, FITC-ZNF622(341–356) peptide (human) (UniProt Q969S3); assay: as above
T4 sequence (peptide, FITC label (position not stated)): LEFADFYDFRSSYPDH

[8] = biological target: T2, FITC-EBP50(348–358) peptide; assay: fluorescence polarisation; direct binding: 5 nM FITC-labeled probe peptide titrated with FERM domain; 20 mM HEPES pH 7.4, 150 mM NaCl, 0.05% Tween-20, 3 mM DTT; quadratic equation for 1:1 binding; both purified
[9] = biological target: T5, FITC-FAM83G(111–126) peptide (human) (UniProt A6ND36); assay: as above
T5 sequence (peptide, FITC label (position not stated)): AEPLPSLEYWPQKSDR

[10] = biological target: T1, FITC-KIRREL3(637–652) peptide (human); assay: as above
[11] = biological target: T6, FITC-LATS1(73–88) peptide (human); assay: as above
T6 sequence (peptide, FITC label (position not stated)): THHKALQEIRNSLLPF

[12] = biological target: T7, FITC-NOP53(192–207) peptide (human); assay: as above
T7 sequence (peptide, FITC label (position not stated)): FYDLWASDNPLDRPLV

[13] = biological target: T3, FITC-TBX4(428–443) peptide (human); assay: as above
[14] = biological target: T4, FITC-ZNF622(341–356) peptide (human); assay: as above
[15] = biological target: T4, FITC-ZNF622(341–356) peptide (human); assay: fluorescence polarisation; competition: precomplex of moesin FERM and FITC-ZNF622 probe, titrated with unlabeled peptide; constants printed as KD′; FP buffer (for HIF1A the text names FITC-NOP53 as probe, the table's footnote FITC-ZNF622); both purified

binding [1] | binding [3] | binding [8] | binding [9] | binding [10] | binding [11] | binding [12] | binding [13] | binding [14] | Substance | further results
no binding |  |  |  |  |  |  |  |  | full-length HIF1A (from UniProt Q16665 1-826) | binding [2]: binds
 | binds | binds | binds | binds | binds | binds | binds | binds | moesin FERM domain (from UniProt P26038 2-295) (domain or fragment) | binding [4]: binds; binding [5]: binds; binding [6]: binds; binding [7]: binds; binding [15]: binds
 | binds | binds | binds | binds | binds | binds | binds | binds | ezrin FERM domain (as used in FP) (from UniProt P15311 2-296) (domain or fragment) | 
 |  |  |  | no binding |  |  | no binding |  | merlin FERM domain (from UniProt P35240 22-312) (domain or fragment) | 
binds |  |  |  |  |  |  |  |  | full-length PAK6 (from UniProt Q9NQU5 1-681) | 
